These are yes or no findings as the source states them, for the method shown. Binding seen in cells or lysates may run through a third protein. A yes stands for co-enrichment or nearness to the bait. Other partners may have been found.
What was measured:
[1] = molecular target: T1, variant HnRNPG (cancer-associated variant of heterogeneous ribonucleoprotein G) (human); test: immunoprecipitation with VB1-213, in-solution digest, mass spectrometry
T1 sequence: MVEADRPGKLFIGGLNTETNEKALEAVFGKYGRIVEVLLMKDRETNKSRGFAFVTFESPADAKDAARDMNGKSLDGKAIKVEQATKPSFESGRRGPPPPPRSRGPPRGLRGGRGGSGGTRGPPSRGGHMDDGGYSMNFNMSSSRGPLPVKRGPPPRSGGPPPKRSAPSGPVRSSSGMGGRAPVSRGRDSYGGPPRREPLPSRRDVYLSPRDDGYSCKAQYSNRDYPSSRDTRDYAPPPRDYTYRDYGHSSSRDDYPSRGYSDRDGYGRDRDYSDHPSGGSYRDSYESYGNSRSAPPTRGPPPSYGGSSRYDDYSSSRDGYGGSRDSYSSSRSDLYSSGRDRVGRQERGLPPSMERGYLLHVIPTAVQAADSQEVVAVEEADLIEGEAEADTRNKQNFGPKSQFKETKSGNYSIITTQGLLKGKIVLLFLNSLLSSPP

[2] = molecular target: T1, variant HnRNPG (cancer-associated variant of heterogeneous ribonucleoprotein G) (human); test: immunoprecipitation with VB1-213 from DU-145, SKBR-3 and Panc-1 membrane preparations, 1D gel band, mass spectrometry
[3] = molecular target: T1, variant HnRNPG (cancer-associated variant of heterogeneous ribonucleoprotein G) (human); test: immunoprecipitation with VB1-213, 2D-PAGE Western blot probed with VB1-213, mass spectrometry

- binding [1]: binds
- binding [2]: binds
- binding [3]: binds
B1: VB1-213 monoclonal antibody (antibody, human IgG1, V domains shown)
VH: EVQLLESGGGLVQPGGSLRLSCAASGFTFRSYAMSWVRQAPGKGLEWVSTISGRGVTTYYADSVKGRFTISRDNSKNTLYLQMNSLRADDTALYYCAKDRTRYYGMDVWGQGTTVTVSS
VL: SYELTQPPSVSVSPGQTASITCSGNKLGDKYACWYQQKSGQSPVLVIYQDSKRPSGIPERFSGSNSGNTATLTISGTQALDEADYYCQAWDNSTAVFGGGTKLTVLG
